From patent US20100075307

Target: T1, Klenow C2 Streptavidin-fusion protein, P00582
T1 chain: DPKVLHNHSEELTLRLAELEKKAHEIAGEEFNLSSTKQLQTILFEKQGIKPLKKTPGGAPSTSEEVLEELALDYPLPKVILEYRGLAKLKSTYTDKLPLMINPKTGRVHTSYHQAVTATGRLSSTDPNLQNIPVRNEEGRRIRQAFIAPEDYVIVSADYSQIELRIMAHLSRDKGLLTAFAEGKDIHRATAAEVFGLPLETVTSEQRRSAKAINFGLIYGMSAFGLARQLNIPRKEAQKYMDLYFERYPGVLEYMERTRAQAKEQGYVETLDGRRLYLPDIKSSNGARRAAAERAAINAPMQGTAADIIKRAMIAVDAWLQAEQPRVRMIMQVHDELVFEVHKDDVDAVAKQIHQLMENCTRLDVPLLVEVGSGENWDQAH

B1: Klenow N2 Streptavidin-fusion protein (protein)
chain: VISYDNYVTILDEETLKAWIAKLEKAPVFAFDTETDSLDNISANLVGLSFAIEPGVAAYIPVAHDYLDAPDQISRERALELLKPLLEDEKALKVGQNLKYDRGILANYGIELRGIAFDTMLESYILNSVAGRHDMDSLAERWLKHKTITFEEIAGKGKNQLTFNQIALEEAGRYAAEDADVTLQLHLKMWPDLQKHKGPLNVFENIEMPLVPVLSRIERNGVKI
With B1 the “QPCR signal (reconstituted Klenow polymerase activity copying the modified Oligo 1 template)” value was “Combination of both halves of split Klenow with biotinylated antibodies (N2C2+AB) resulted in a substantially better signal than combination of both halves without the antibodies (N2C2)”.
